From patent WO2009082624A2
These are yes or no findings as the source states them, for the method shown. Some results given as binding are weak or reduced against the parent protein; the word gives no strength.

Chains of the proteins cited; added tags and fusions are not shown. Lines headed by an entry give the natural chain unless they say otherwise; changes in a name come on top.
UniProt Q96F46: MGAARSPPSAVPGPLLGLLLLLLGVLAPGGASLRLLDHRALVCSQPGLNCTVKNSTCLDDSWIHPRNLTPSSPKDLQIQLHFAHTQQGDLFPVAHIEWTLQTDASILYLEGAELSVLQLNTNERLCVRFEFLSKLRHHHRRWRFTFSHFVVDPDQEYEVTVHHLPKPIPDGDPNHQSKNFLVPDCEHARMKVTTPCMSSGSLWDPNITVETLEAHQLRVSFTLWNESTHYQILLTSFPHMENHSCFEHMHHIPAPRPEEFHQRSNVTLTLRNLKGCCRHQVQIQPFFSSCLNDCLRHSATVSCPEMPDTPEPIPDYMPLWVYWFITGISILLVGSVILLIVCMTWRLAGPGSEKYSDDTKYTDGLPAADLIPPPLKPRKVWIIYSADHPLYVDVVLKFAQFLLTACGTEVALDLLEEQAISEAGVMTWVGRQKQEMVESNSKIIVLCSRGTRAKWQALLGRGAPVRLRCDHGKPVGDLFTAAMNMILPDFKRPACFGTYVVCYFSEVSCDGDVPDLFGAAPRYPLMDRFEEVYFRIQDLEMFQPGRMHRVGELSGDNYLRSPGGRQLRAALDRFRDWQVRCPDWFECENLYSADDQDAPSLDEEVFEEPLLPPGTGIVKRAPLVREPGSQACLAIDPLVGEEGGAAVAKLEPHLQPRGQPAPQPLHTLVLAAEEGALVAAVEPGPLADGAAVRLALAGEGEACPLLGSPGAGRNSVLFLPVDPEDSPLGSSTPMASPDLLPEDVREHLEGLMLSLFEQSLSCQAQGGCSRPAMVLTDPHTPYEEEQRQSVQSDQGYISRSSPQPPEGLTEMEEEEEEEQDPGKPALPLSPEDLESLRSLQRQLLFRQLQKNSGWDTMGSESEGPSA

Target: T1, human IL-17A (IL-17AA homodimer), recombinant (human) (UniProt Q16552)
T1 sequence: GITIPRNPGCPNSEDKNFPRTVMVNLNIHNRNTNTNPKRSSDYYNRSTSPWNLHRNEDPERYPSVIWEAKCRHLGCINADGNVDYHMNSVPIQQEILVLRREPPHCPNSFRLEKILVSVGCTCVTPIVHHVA
Assay: SPR (Biacore T-100), IL-17A immobilised

binding: binds
Substance: human IL-17RA-Fc soluble receptor (ZymoGenetics) (from UniProt Q96F46 33-320) (Fc fusion)
